Values from PubChem BioAssay AID1508588 (Peter MacCallum Cancer Centre, 2020).

Test: 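Which gene losses make BRAF-mutant melanoma cells more responsive to vemurafenib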 (primary screen)
System: human WM266.4 melanoma cells (BRAF V600 mutant)
Reagent: siRNA pool against human genes, 40 nM
Duration: 96 h from transfection to read-out
Conditions: vemurafenib 300 nM (about IC25), added 48 h after transfection, for 48 h; comparison arm got DMSO vehicle only
Measured: 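Ratios to non-targeting siRNA for cell gain, counted as DAPI nuclei after minus before drug and averaged over two replicates, and for absorbance-read medium lactate per cell; both binned into fold-change classes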
Reading the numbers: cell gain with vemurafenib: higher = more cell gain than with non-targeting siRNA; lactate per cell with vemurafenib: higher = more lactate made per cell
Hit rule: 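a knock-down counts as enhancing when its fold-change classes with vehicle and with vemurafenib, taken together, show a stronger drug effect on cell gain or lactate per cell; exact class pairs not stated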
Meaning of the calls: active = enhances vemurafenib effect; inactive = no enhancement seen
Shown is an unselected part of about 18,000 reagents. 790 of them (4.4%) were called active. 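Calls rest on a combination of fold-change classes in drug and vehicle arms, not all shown here.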 Reagent sequences are not shown.

gene symbol	cell gain with vemurafenib	lactate per cell with vemurafenib	Call
COL5A3 (collagen type V alpha 3 chain)	1.3	0.86	inactive
CPXCR1 (CPX chromosome region candidate 1)	0.78	0.52	inactive
CRYBG1 (crystallin beta-gamma domain containing 1)	0.71	0.76	inactive
LPAR4 (lysophosphatidic acid receptor 4)	0.59	0.66	inactive
FAM47A (family with sequence similarity 47 member A)	0.62	1.01	inactive
FOXK2 (forkhead box K2)	1.17	0.33	inactive
GFI1 (growth factor independent 1 transcriptional repressor)	0.98	0.88	inactive
CALB1 (calbindin 1)	0.27	1.19	inactive
MCF2L2 (MCF.2 cell line derived transforming sequence-like 2)	0.64	0.98	inactive
COMP (cartilage oligomeric matrix protein)	0.06	1.2	inactive
ZZEF1 (zinc finger ZZ-type and EF-hand domain containing 1)	0.2	1.23	inactive
LILRA6 (leukocyte immunoglobulin like receptor A6)	0.86	0.62	inactive
CYP19A1 (cytochrome P450 family 19 subfamily A member 1)	0.53	1.5	inactive
KCNQ4 (potassium voltage-gated channel subfamily Q member 4)	0.29	1.75	inactive
OSBPL11 (oxysterol binding protein like 11)	0.62	0.56	inactive
HPSE2 (heparanase 2 (inactive))	-0.06	0.01	active
OTOR (otoraplin)	0.99	0.66	inactive
CFAP57 (cilia and flagella associated protein 57)	0.58	1.34	inactive
CDK3 (cyclin dependent kinase 3)	0.54	0.56	inactive
PCID2 (PCI domain containing 2)	0.95	0.66	inactive
S100A13 (S100 calcium binding protein A13)	0.35	1.08	inactive
TMEM256 (transmembrane protein 256)	0.74	1.27	inactive
TMEM259 (transmembrane protein 259)	0.92	0.63	inactive
EXTL1 (exostosin like glycosyltransferase 1)	0.63	0.97	inactive
KBTBD8 (kelch repeat and BTB domain containing 8)	0.51	1.7	inactive
HSD17B2 (hydroxysteroid 17-beta dehydrogenase 2)	0.62	1.27	inactive
NAT10 (N-acetyltransferase 10)	0.36	1.63	inactive
POFUT1 (protein O-fucosyltransferase 1)	0.41	1.14	inactive
CKLF (chemokine like factor)	0.73	0.38	inactive
FRG2B (FSHD region gene 2 family member B)	0.71	0.94	inactive
AVPR2 (arginine vasopressin receptor 2)	-0.02	0.96	inactive
B3GALT5 (beta-1,3-galactosyltransferase 5)	0.04	2.28	inactive
DDX3Y (DEAD-box helicase 3 Y-linked)	1.11	0.18	active
TMEM54 (transmembrane protein 54)	0.29	1.33	inactive
ZCCHC14 (zinc finger CCHC-type containing 14)	0.32	0.9	inactive
OR2T34 (olfactory receptor family 2 subfamily T member 34)	0.05	2.7	inactive
SHISA6 (shisa family member 6)	0.45	1.36	inactive
NAA80 (N-alpha-acetyltransferase 80, NatH catalytic subunit)	0.32	1.53	inactive
TEDC2 (tubulin epsilon and delta complex 2)	0.12	0.95	inactive
AATF (apoptosis antagonizing transcription factor)	0.79	0.73	inactive
PRKACB (protein kinase cAMP-activated catalytic subunit beta)	0.52	1.52	inactive
MED11 (mediator complex subunit 11)	0.66	1.29	inactive
NAXD (NAD(P)HX dehydratase)	0.43	1.23	inactive
ABLIM3 (actin binding LIM protein family member 3)	0.36	1.27	inactive
HSF2 (heat shock transcription factor 2)	0.79	0.92	inactive
SNAP25 (synaptosome associated protein 25)	0.7	0.76	inactive
GPR32 (G protein-coupled receptor 32)	0.17	0.54	active
LAMA5 (laminin subunit alpha 5)	0.61	1.7	inactive
ENTREP3 (endosomal transmembrane epsin interactor 3)	0.63	1.17	inactive
LCLAT1 (lysocardiolipin acyltransferase 1)	0.95	1.21	inactive
LCE2D (late cornified envelope 2D)	0.63	0.52	inactive
PIK3IP1 (phosphoinositide-3-kinase interacting protein 1)	0.22	1.23	inactive
SEMA4B (semaphorin 4B)	0.69	0.77	inactive
SAP18 (Sin3A associated protein 18)	0.34	1.52	inactive
NT5M (5',3'-nucleotidase, mitochondrial)	0.26	2.32	inactive
ZIM2 (zinc finger imprinted 2)	0.62	0.68	inactive
LHCGR (luteinizing hormone/choriogonadotropin receptor)	0.57	0.44	inactive

Already shown: 4 of the entries above.
gene symbol	cell gain with vemurafenib	lactate per cell with vemurafenib	Call
ABLIM3 (actin binding LIM protein family member 3)	0.36	1.27	inactive
HSF2 (heat shock transcription factor 2)	0.79	0.92	inactive
SNAP25 (synaptosome associated protein 25)	0.7	0.76	inactive
GPR32 (G protein-coupled receptor 32)	0.17	0.54	active
